# Measurements published in PubChem BioAssay AID587 (National Center for Advancing Translational Sciences (NCATS), 2007).
# Among all 59,000 compounds or so, about 35 (0.06%) were called active. Inconclusive means that the source gave no clear call. Such entries were picked first, then a sample of the others. Cut-off read from the data, not from the text of the source: active = max dye-equivalent concentration above about 10 nM; inconclusive = between about 1.1 nM and that limit; inactive = weaker than that.
# Assay: qHTS Assay for Spectroscopic Profiling in Texas Red Spectral Region
# Details: Compound fluorescence, Texas Red channel, 547/618 nm; stronger effect = higher value
# Outline: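 qHTS profiling of intrinsic compound fluorescence; 100 mM Tris pH 8.0; 15 min RT; ex 547 / em 618 nm; response expressed as Texas Red dye-equivalent concentration from six-point plate standard.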
row,SMILES,max dye-equivalent concentration
1,CCCCS(=O)(=O)NC1=NCN(C2CCN(Cc3ccccc3)CC2)CN1,inconclusive: 1.1 nM
2,CSCCC(NS(=O)(=O)c1ccc2c(c1)OCCO2)C(=O)NCCc1ccccn1 (stereo unspecified),inconclusive: 1.2 nM
3,Cc1nc(NCCN)c(C#N)c2c1COC(C)(C)C2,inactive
4,O=C(O)/C=C\C(=O)Nc1ncn[nH]1,inactive
5,COc1cccc(Cn2c(=O)c(-c3cccc(C#N)c3)nc3cnc(Nc4ccccc4)nc32)c1,inactive
6,CC(=O)Cc1nsc(NC(=O)c2ccc(-c3cccc(C(F)(F)F)c3)o2)n1,inconclusive: 1.8 nM
7,Cn1c(SCC(=O)NC2CCCCC2)nnc1-c1cc2cc(Cl)ccc2o1,inconclusive: 1.8 nM
8,CCOC(=O)C1CCN(C(=O)CSc2n[nH]c(=O)[nH]c2=O)CC1,inconclusive: 1.4 nM
9,COc1cccc(-c2cc(NCc3cccc(C)c3)ncn2)c1,inactive
10,Cc1ccccc1-c1ccc(Nc2ccc(C(=O)N3CCOCC3)cc2)nn1,inconclusive: 2 nM
11,Cc1cccc(-c2c3c(=O)n(C)c(=O)n(C)c3cn2-c2ccc(O)cc2)c1,inconclusive: 1.2 nM
12,O=C(CSc1nc2c(c(=O)[nH]1)CCC2)Nc1cccc(Cl)c1,inconclusive: 1.4 nM
13,COc1cccc(-c2csc3nnc(SCC(=O)c4ccc(NC(C)=O)cc4)n23)c1,inconclusive: 2.1 nM
14,Cc1noc(C)c1C(=O)N1CCC2(CCCN(c3ccncc3)C2)CC1,inactive
15,CC(C)OCCCNC(=O)c1c(N)n(/N=C/c2ccccn2)c2nc3ccccc3nc12,inconclusive: 1.6 nM
16,CCCCn1c(NC(=O)CC)c(C#N)c2nc3ccccc3nc21,inconclusive: 2.3 nM
17,Cc1ccc2nc(SCC(=O)NC(=O)NCc3ccco3)[nH]c2c1,inconclusive: 2.3 nM
18,CCCCn1nnnc1SCC(=O)Nc1ccc2c(c1)OCCO2,inconclusive: 1.7 nM
19,COc1ccc(N2CCN(c3ccc(N)cc3C#N)CC2)cc1,inconclusive: 1.3 nM

# 3 compounds drawn at random from those above, as already listed:
row,SMILES,max dye-equivalent concentration
9,COc1cccc(-c2cc(NCc3cccc(C)c3)ncn2)c1,inactive
2,CSCCC(NS(=O)(=O)c1ccc2c(c1)OCCO2)C(=O)NCCc1ccccn1 (stereo unspecified),inconclusive: 1.2 nM
12,O=C(CSc1nc2c(c(=O)[nH]1)CCC2)Nc1cccc(Cl)c1,inconclusive: 1.4 nM

# More records.

row,SMILES,max dye-equivalent concentration
1,O=C(CN1CCCC1=O)NC1(C(F)(F)F)NC(=O)N(Cc2ccccc2)C1=O (stereo unspecified),inconclusive: 1.7 nM
2,CCCCOc1ccc(/C=c2\sc3ncnn3c2=O)cc1,inconclusive: 1.5 nM
3,N[C@H](Cc1cccc(-c2ccccc2CP(=O)(O)O)c1)C(=O)O,inactive
4,CCC(CO)NC(=O)c1cccc(S(=O)(=O)N2c3ccccc3CC2C)c1 (stereo unspecified),inconclusive: 1.5 nM
5,CC(=O)[C@H]1[C@@H]2C(=O)N(c3cccc(Cl)c3)C(=O)[C@@H]2[C@H]2c3ccccc3C=CN21,inactive
6,CC1Cc2cc(C3(O)C(=O)c4ccccc4C3=O)ccc2N1 (stereo unspecified),inconclusive: 2.5 nM
7,CCOC(=O)C1CCN(c2c(NCCCN3CCN(Cc4ccccc4)CC3)c(=O)c2=O)CC1,inconclusive: 1.1 nM
8,Cc1cccc(-c2c3c(=O)n(C)c(=O)n(C)c3c3cccnn23)c1,inactive
9,COCCn1c(=O)c(-c2ccc(OC)cc2)nc2cnc(OCc3ccccc3)nc21,inactive
10,CCOC(=O)N1CCN(C(=O)CNC(=O)Cc2ccc(Cl)cc2)CC1,inconclusive: 1.9 nM
11,CC1CCN(c2nc3ccccc3nc2C(C#N)C(=O)NC2CCCCC2)CC1 (stereo unspecified),inactive
12,O=C1c2c(O)cc(O)cc2O[C@@H](c2ccc(O)c(O)c2)[C@H]1O,inactive
13,CCCNC(=O)Cn1cnc2sc(C(=O)NCCN(CC)CC)c(C)c2c1=O,inconclusive: 1.1 nM
14,C=CCNC(=O)CCCC(=O)NCC=C,inconclusive: 1.2 nM
15,Cc1ccc(C)c(N2CCN(C(=O)c3ccccc3Br)CC2)c1,inconclusive: 1.3 nM
16,Cc1noc(C)c1COC(=O)CCc1ccc(S(=O)(=O)N2CCCCC2)cc1,inconclusive: 1.9 nM
17,CCCc1[nH]nc2c1C(c1cccc(OC(=O)c3ccco3)c1)C(C#N)=C(N)O2 (stereo unspecified),inconclusive: 1.4 nM
18,O=C(Nc1ccc(N2CCN(C(=O)c3ccc(Cl)cc3)CC2)cc1)c1cccnc1,inconclusive: 1.6 nM
19,CCOc1ncccc1C(=O)Nc1cccc(C(=O)Nc2cccc(S(=O)(=O)CCO)c2)c1,inconclusive: 1.1 nM

row,SMILES,max dye-equivalent concentration
1,CC(C)NNC(=O)c1ccncc1,inconclusive: 1.2 nM
2,COc1cccc(NC(=O)Nc2cccs2)c1,inconclusive: 1.2 nM
3,CCn1c(=O)c(C(=O)NCCc2ccccc2)c(O)c2ccccc21,inconclusive: 1.2 nM
4,O=C(Cc1ccccc1)NCc1nc2ccccc2[nH]1,inconclusive: 2.2 nM
5,CN(C)CCNC(=O)c1cc2ccccc2oc1=O,inconclusive: 1.2 nM
6,O=C(O)c1c2c(c(O)c3c1CN(C1CCCCC1)CO3)OCN(C1CCCCC1)C2,inactive
7,CC1=C(C(=O)OCC(C)C)C(c2cccc(F)c2)N2C(=O)C(C)SC2=N1 (stereo unspecified),inconclusive: 1.4 nM
8,CCn1c(=O)cc(SCC(=O)NCCCN2CCN(c3ccccc3F)CC2)c2ccccc21,inconclusive: 1.6 nM
9,Cc1nc(N2CCc3ccccc32)[nH]c(=O)c1CCC(C)C,inconclusive: 1.7 nM
10,CC1CCCC(C)N1C(=O)CN1C(=O)C(C)(C)Oc2ccc(C(=O)NC3CCCCC3)cc21 (stereo unspecified),inconclusive: 1.3 nM
11,O=C(O)c1ccc2nc(C(F)(F)F)[nH]c2c1,inconclusive: 1.1 nM
12,CC(=O)N=c1sc(S(N)(=O)=O)nn1C,inconclusive: 1.4 nM
13,COc1ccc(OC)c(Nc2nc(-c3sc(N)nc3C)cs2)c1,inconclusive: 2.5 nM
14,O=c1cnc2cnc(Oc3ccccc3)nc2n1C[C@H]1CCCO1,inconclusive: 1.1 nM
15,CC1CCN(C(=O)CSc2nnc(CN3CCOCC3)n2-c2ccccc2)CC1,inconclusive: 1.6 nM
16,CCN=C1SC(C(=O)Nc2cccc(OCC)c2)CC(=O)N1CC (stereo unspecified),inconclusive: 2.3 nM
17,COc1ccc2c3c(ccc2c1)N[C@H](C(=O)O)CC3,inactive
18,NC(=S)c1ccc(C(N)=S)o1,inconclusive: 1.7 nM
